One molecule from article PMC12608094, “STN1 Shields CTC1 From TRIM32‐Mediated Ubiquitination to Prevent Cellular Aging” (Aging Cell, 2025) can be followed below.

Test [1] addresses HA-tagged TRIM32 NHL deletion mutant (ΔNHL) (human). Description: co-IP; HEK293T lysates in NP-40 lysis buffer; HA-TRIM32 and mutants precipitated with HA beads, 4°C, 2 h; Flag-CTC1 detected by Western blot. (In western blotting, separated proteins are transferred to a membrane and probed.)
The target in test [2] is HA-tagged TRIM32 NHL domain alone (human). Described as above.

These are yes or no findings as the source states them, for the method shown. Binding seen in cells or lysates may run through a third protein. Binding calls can cover weak binding; strength is not graded here. Tags and fused reporters may be left off the sequences shown.

B1: Flag-tagged CTC1 (wild type) (protein, UniProt Q2NKJ3 1-1217)
chain: MAAGRAQVPSSEQAWLEDAQVFIQKTLCPAVKEPNVQLTPLVIDCVKTVWLSQGRNQGSTLPLSYSFVSVQDLKTHQRLPCCSHLSWSSSAYQAWAQEAGPNGNPLPREQLLLLGTLTDLSADLEQECRNGSLYVRDNTGVLSCELIDLDLSWLGHLFLFPRWSYLPPARWNSSGEGHLELWDAPVPVFPLTISPGPVTPIPVLYPESASCLLRLRNKLRGVQRNLAGSLVRLSALVKSKQKAYFILSLGRSHPAVTHVSIIVQVPAQLVWHRALRPGTAYVLTELRVSKIRGQRQHVWMTSQSSRLLLLKPECVQELELELEGPLLEADPKPLPMPSNSEDKKDPESLVRYSRLLSYSGAVTGVLNEPAGLYELDGQLGLCLAYQQFRGLRRVMRPGVCLQLQDVHLLQSVGGGTRRPVLAPCLRGAVLLQSFSRQKPGAHSSRQAYGASLYEQLVWERQLGLPLYLWATKALEELACKLCPHVLRHHQFLQHSSPGSPSLGLQLLAPTLDLLAPPGSPVRNAHNEILEEPHHCPLQKYTRLQTPSSFPTLATLKEEGQRKAWASFDPKALLPLPEASYLPSCQLNRRLAWSWLCLLPSAFCPAQVLLGVLVASSHKGCLQLRDQSGSLPCLLLAKHSQPLSDPRLIGCLVRAERFQLIVERDVRSSFPSWKELSMPGFIQKQQARVYVQFFLADALILPVPRPCLHSATPSTPQTDPTGPEGPHLGQSRLFLLCHKEALMKRNFCVPPGASPEVPKPALSFYVLGSWLGGTQRKEGTGWGLPEPQGNDDNDQKVHLIFFGSSVRWFEFLHPGQVYRLIAPGPATPMLFEKDGSSCISRRPLELAGCASCLTVQDNWTLELESSQDIQDVLDANKSLPESSLTDLLSDNFTDSLVSFSAEILSRTLCEPLVASLWMKLGNTGAMRRCVKLTVALETAECEFPPHLDVYIEDPHLPPSLGLLPGARVHFSQLEKRVSRSHNVYCCFRSSTYVQVLSFPPETTISIPLPHIYLAELLQGGQSPFQATASCHIVSVFSLQLFWVCAYCTSICRQGKCTRLGSTCPTQTAISQAIIRLLVEDGTAEAVVTCRNHHVAAALGLCPREWASLLDFVQVPGRVVLQFAGPGAQLESSARVDEPMTMFLWTLCTSPSVLRPIVLSFELERKPSKIVPLEPPRLQRFQCGELPFLTHVNPRLRLSCLSIRESEYSSSLGILASSC
Turning to B1, the values for the binding result in test [1] and in test [2] were “binds weakly” and “binds”, respectively.
